Results are given in words; binding and its absence hold for the method and conditions named. Binding seen in cells or lysates may run through a third protein. A yes stands for co-enrichment or nearness to the bait. Other partners may have been found. Where a sequence is shown, tags or fusion partners need not be part of it.
Biological target: T1, Mic19-Flag (human) (UniProt Q9NX63)
T1 sequence: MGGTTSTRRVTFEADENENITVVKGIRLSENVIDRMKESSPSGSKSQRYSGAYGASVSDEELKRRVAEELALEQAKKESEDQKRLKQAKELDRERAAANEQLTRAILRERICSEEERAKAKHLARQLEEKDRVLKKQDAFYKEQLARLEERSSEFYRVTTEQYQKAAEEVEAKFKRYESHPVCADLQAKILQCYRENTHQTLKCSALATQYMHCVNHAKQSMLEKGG
Experiment: affinity purification with mass spectrometry

B1: Sam50 (endogenous) (protein, UniProt Q9Y512 1-469)
chain: MGTVHARSLEPLPSSGPDFGGLGEEAEFVEVEPEAKQEILENKDVVVQHVHFDGLGRTKDDIIICEIGDVFKAKNLIEVMRKSHEAREKLLRLGIFRQVDVLIDTCQGDDALPNGLDVTFEVTELRRLTGSYNTMVGNNEGSMVLGLKLPNLLGRAEKVTFQFSYGTKETSYGLSFFKPRPGNFERNFSVNLYKVTGQFPWSSLRETDRGMSAEYSFPIWKTSHTVKWEGVWRELGCLSRTASFAVRKESGHSLKSSLSHAMVIDSRNSSILPRRGALLKVNQELAGYTGGDVSFIKEDFELQLNKQLIFDSVFSASFWGGMLVPIGDKPSSIADRFYLGGPTSIRGFSMHSIGPQSEGDYLGGEAYWAGGLHLYTPLPFRPGQGGFGELFRTHFFLNAGNLCNLNYGEGPKAHIRKLAECIRWSYGAGIVLRLGNIARLELNYCVPMGVQTGDRICDGVQFGAGIRFL
With B1 the binding was “binds”.
